The values that follow come from the supplement of paper PMC11348887.

Where a name gives a salt, the structure may show the parent alone. The list shows a part of the results. Most entries show no effect beyond the scatter of the controls.

For the test, the system named is hPSC-derived cortical neurons (WA09). The test can be described thus: nucleus roundness z-score vs screen plate; higher = rounder nuclei (more mature). Particulars: 5 µM; treatment: days 7-14 after plating, readout day 21.
Take `CN1[C@@H]2CC[C@H]1C[C@@H](OC(=O)c1c[nH]c3ccccc13)C2` [Tropisetron]: the nucleus roundness z-score worked out at 0.814.
`CCS(=O)(=O)Nc1ccc2c(c1)/C(=C(/Nc1ccc(CN3CCCCC3)cc1)c1ccccc1)C(=O)N2` [Hesperadin] gave a nucleus roundness z-score of -5.7.
In the case of `CC(CN(C)C)CN1c2ccccc2CCc2ccccc21` (stereo not given) [Trimipramine Maleate] it was -0.547.
Molecule `CC(=O)O[C@]1(C(C)=O)CC[C@H]2[C@@H]3C=C(Cl)C4=CC(=O)[C@@H]5C[C@@H]5[C@]4(C)[C@H]3CC[C@@]21C` [Cyproterone Acetate] gave a nucleus roundness z-score of -2.16.
As for `CC(C(=O)O)c1cccc(Oc2ccccc2)c1` (stereo not given) [Fenoprofen calcium hydrate], the nucleus roundness z-score came to 0.448.
The molecule `CN[C@H]1CN(c2ccc3c(=O)c(C(=O)O)cn(-c4nccs4)c3n2)C[C@@H]1OC` [Voreloxin (SNS-595)] showed a nucleus roundness z-score of 0.23.
As to `CN1CCN(C(=O)C2C(C(=O)O)[C@H]3CC[C@@H]2O3)CC1` (stereo not given in full), the nucleus roundness z-score was -1.1.
With `c1ccc2c(Oc3nc(Nc4ccc(N5CCOCC5)cc4)c4ncn(C5CCCCC5)c4n3)cccc2c1` [Purmorphamine], the nucleus roundness z-score is -1.08.
In the case of `C[C@H](NC(=O)C(=O)Nc1ccccc1C(C)(C)C)C(=O)N[C@@H](CC(=O)O)C(=O)COc1c(F)c(F)cc(F)c1F` [Emricasan] it was 1.21; in that of `NC(=O)c1cnc(N[C@@H]2CCCC[C@@H]2N)nc1Nc1cccc(-n2nccn2)c1`, 0.345; in that of `CC(C)c1cc(-c2n[nH]c(=O)n2-c2ccc3c(ccn3C)c2)c(O)cc1O` [Ganetespib (STA-9090)], -2.57.
`NC(=O)CCCSc1nc(N)nc(-c2c(Cl)cc3c4c(cccc24)COC3)n1` yielded a nucleus roundness z-score of -3.07.
`Cc1ccccc1C(C(=O)NC1CCCCC1)N(C(=O)Cn1ccnc1C)c1cccc(F)c1` (stereo not given) returned a nucleus roundness z-score of -0.611.
The molecule `CCc1cc(C(N)=S)ccn1` [Ethionamide] showed a nucleus roundness z-score of 0.644.
`O=C(O)[C@H]1CSC(c2nc3ccc(O)cc3s2)=N1` [D-Luciferin] came in with a nucleus roundness z-score of -0.253.
In turn, `CCn1cc(C(=O)O)c(=O)c2cc(F)c(N3CCN(C)CC3)cc21` [Pefloxacin Mesylate] returned a nucleus roundness z-score of -0.0969.
`C=CCc1ccc(O)c(-c2cc(CC=C)ccc2O)c1` [Magnolol] gave a nucleus roundness z-score of -0.0745.
In the case of `CCOc1cc(N2CCC(O)CC2)ccc1Nc1ncc2c(n1)N(C)c1ccccc1C(=O)N2C` it was -2.01.
In the case of `Cc1cc(NC(=O)C2=C(O)c3ccccc3S(=O)(=O)N2C)no1` [Isoxicam] it was -0.0401; in that of `CCCCCCCCCCC[C@@H](C[C@@H]1OC(=O)[C@H]1CCCCCC)OC(=O)[C@H](CC(C)C)NC=O` [Orlistat], -0.324; in that of `N#Cc1ccc(-c2csc(NN=C3CCCC3)n2)cc1` [Remodelin], 0.257.
As for `O[C@H]1[C@H](O)[C@@H](O)[C@H](O)[C@@H](O)[C@H]1O` [i-Inositol], the nucleus roundness z-score worked out at 1.27.
On to `O=C(OCc1ccccc1)c1ccccc1` [Benzyl benzoate], for which the nucleus roundness z-score turned out to be 0.704.
Take `N=C(N)NC(=N)N1CCOCC1` [Moroxydine HCl]: the nucleus roundness z-score was 1.23.
For `OCc1cc(C(O)CNCCCCCCOCCCCc2ccccc2)ccc1O` (stereo not given) [Salmeterol Xinafoate], the nucleus roundness z-score is -0.613.
With `CC1(C)O[C@@H]2C[C@H]3[C@@H]4CCC5=CC(=O)CC[C@]5(C)[C@@]4(F)[C@@H](O)C[C@]3(C)[C@]2(C(=O)CCl)O1` [Halcinonide], the nucleus roundness z-score was -0.965.
`O=C(O)c1cc(I)ccc1NC(=O)[C@H](Cc1ccccc1)NCc1ccccc1`: the nucleus roundness z-score is 0.82.
In the case of `CC[C@H]1OC(=O)[C@H](C)[C@@H](O[C@H]2C[C@@](C)(OC)[C@@H](O)[C@H](C)O2)[C@H](C)[C@@H](O[C@@H]2O[C@H](C)C[C@H](N(C)C)[C@H]2O)[C@](C)(OC)C[C@@H](C)C(=O)[C@H](C)[C@@H](O)[C@]1(C)O` [Clarithromycin] it was 1.12; in that of `CCCCCCCCCCCCCCCCO` [1-Hexadecanol], -0.447; in that of `NC[C@@](O)(c1ccc(Cl)cc1)c1ccc(-c2cn[nH]c2)cc1`, 0.301.
